Oligonucleotides screened, 5′ to 3′:
SAM-II: SAM-II riboswitch RNA pseudoknot, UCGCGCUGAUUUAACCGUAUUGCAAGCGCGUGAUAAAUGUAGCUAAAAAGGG. About 21,000 compounds screened, about 200 hits.
PreQ1: PreQ1 riboswitch RNA pseudoknot, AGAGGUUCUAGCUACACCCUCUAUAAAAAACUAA. From B. subtilis. About 24,000 compounds screened, about 170 hits.
TPP: TPP riboswitch RNA three-way junction, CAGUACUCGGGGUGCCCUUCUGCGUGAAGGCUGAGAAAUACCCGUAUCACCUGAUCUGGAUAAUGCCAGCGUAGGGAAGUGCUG. About 24,000 compounds screened, about 160 hits.

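Compounds were printed on reactive glass slides in duplicate spots, a dye-labelled oligonucleotide was laid over them, and the fluorescence left after washing was read. For the PreQ1, TPP and SAM-II riboswitches the laboratory earlier reported (doi:10.1038/s41467-019-09493-3) 1 µM RNA, 2 h, and a rule that included a mean Z-score above 3 (spot signal-to-noise against the whole library), a score well above that on a control array, and duplicate spots agreeing (coefficient of variation under 100). The data file gives only the calls; its cut-offs may differ, and compounds hitting several targets are kept. The calls come from the array alone, and fixing a compound to the slide can hide its binding.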
A compound is marked active if it was called a hit and inactive if it was screened but was not.
This is an unselected part of the compounds tested.
A dash means that no call is listed here.

| compound | SAM-II | PreQ1 | TPP |
|---|---|---|---|
| `Cc1nn(-c2ccccc2Cl)c(N)c1-c1ccccc1` | inactive | inactive | inactive |
| `O=C(N[C@@H]1CNC[C@H]1O)c1ccc(CSc2ccccn2)cc1` | inactive | inactive | inactive |
| `COc1ccc2c(c1)CN(C)CC2c1ccc(Cl)c(Cl)c1` (configuration not stated) | inactive | inactive | inactive |
| `O=C1CCCCCN1CCC(=O)N1CCC2(CC1)c1ccccc1CC2O` (configuration not stated) | inactive | inactive | inactive |
| `CCOC(=O)C1=C[C@@H](OC(CC)CC)[C@H](NC(C)=O)[C@@H](N)C1` | inactive | inactive | inactive |
| `COc1ccc(C(=O)C2=C(O)C(=O)N(CCCN)C2c2ccccc2)cc1` (configuration not stated) | inactive | inactive | inactive |
| `Cc1n[nH]c(C)c1CCCNc1nc(-c2ccccn2)nc2c1CCNC2` | inactive | inactive | inactive |
| `COc1cc(-c2nc3[nH]cnn3c2Nc2ccccc2)ccc1O` | inactive | inactive | inactive |
| `Nc1cc(OC(=O)c2ccc(Cl)cc2)nn1S(=O)(=O)c1ccc(F)cc1` | inactive | inactive | inactive |
| `COCc1nn2c(N)c(-c3ccc(Cl)cc3)cnc2c1-c1ccc(OC)cc1` | inactive | inactive | inactive |
| `CNC(=O)c1ccccc1Nc1nc(Nc2ccc(N3CCOCC3)cc2OC)ncc1Cl` | inactive | inactive | inactive |
| `COc1cccc2c1OCC(C(=O)N(C)Cc1cnc(N)nc1)C2` (configuration not stated) | inactive | inactive | inactive |
| `CCC(O)c1nc2ccccc2n1CCOc1ccc(C)c(C)c1` (configuration not stated) | - | inactive | inactive |
| `O=C(CC1COCCN1)NCCCc1ccccc1F` (configuration not stated) | inactive | inactive | inactive |
| `Cc1ccccc1-c1nc(CN(C)CC2(CO)CCC2)c(C)o1` | inactive | inactive | inactive |
| `CN(C)c1nc(N)nc(C2CCCN2S(=O)(=O)c2ccc3ccccc3c2)n1` (configuration not stated) | inactive | inactive | inactive |
| `CCNC(=O)[C@@H]1C[C@H](N)CN1Cc1ccc(Sc2ccc(C)cc2)o1` | inactive | inactive | inactive |
| `Nc1c(C(=O)Nc2cnc3ccccc3c2)sc2nc3c(cc12)CCCCCC3` | inactive | inactive | inactive |
| `CCn1c(CO)nc2ccccc21` | - | inactive | inactive |
| `COC[C@H](N)C(=O)N(Cc1cccc(C)c1)C(C)C` | inactive | inactive | inactive |
| `c1ccc(-n2ncc3cccnc32)cc1` | inactive | inactive | inactive |
| `CN1CCCN(c2nc(-c3cccnc3)nc3c2CCNCC3)CC1` | inactive | inactive | inactive |
| `CSCCc1[nH]c(N)c(C#N)c1C` | inactive | inactive | inactive |
| `CSCc1nc(CCNC(=O)C(N)c2c(C)n[nH]c2C)cs1` (configuration not stated) | inactive | inactive | inactive |
| `O=C(N[C@H]1CC[C@H]1NC1CCOCC1)c1ccc(Oc2ccccc2)o1` | inactive | inactive | inactive |
| `CN1CCN(c2c(F)cc3c(=O)c(C(=O)O)cn4c3c2OCN4C)CC1` | inactive | inactive | inactive |
| `Cc1ccc(Cl)cc1-n1nnc(-c2nc(-c3cccnc3)no2)c1N` | - | inactive | inactive |
| `Cc1ccc(CNn2nnnc2N)s1` | inactive | inactive | inactive |
| `CCn1nc(C)c(NC(=O)CNCC2CN(S(C)(=O)=O)CCO2)c1C` (configuration not stated) | inactive | inactive | inactive |
| `CC(=O)Oc1ccc2cc(-c3ccccc3)c(=O)oc2c1` | inactive | inactive | inactive |
| `CC1Cc2cc(S(=O)(=O)N(CCO)Cc3ccccc3)ccc2N1C(=O)C1CC1` (configuration not stated) | - | inactive | inactive |
| `O=C(CCCO)NCCc1nc2ccccc2[nH]1` | - | inactive | inactive |
| `CCN(CCn1cccn1)C(=O)c1ccc(C2CCCNC2)cc1` (configuration not stated) | inactive | inactive | inactive |
| `CCN(CCSc1ccccc1)C(=O)C(N)c1c(C)n[nH]c1C` (configuration not stated) | inactive | inactive | inactive |
| `Cl.c1csc(CNCc2cccc3[nH]ccc23)c1` | inactive | inactive | inactive |
| `NC(=O)C1(NC(=O)c2ccc(S(=O)(=O)N3CCCC(O)C3)cc2)CCCC1` (configuration not stated) | inactive | inactive | inactive |
| `COc1ccc(N(CC(O)CN2C(=O)NC(C)(C)C2=O)S(=O)(=O)c2ccccc2)cc1` (configuration not stated) | inactive | inactive | inactive |
| `CC(CCc1ccccc1)NCC1(CN2CCN(C)CC2)CC1` (configuration not stated) | inactive | inactive | inactive |
| `Cc1ncc2c(c1CNc1nccc(CCC(F)(F)F)n1)CCNC2` | inactive | inactive | inactive |
| `CC(C)NC(=O)[C@@H]1C[C@@H](N)CN1C(=O)c1cc(-c2ccc(F)cc2)n[nH]1` | inactive | inactive | inactive |
| `COC(=O)c1cc(Cc2ccc(N)c(C(=O)OC)c2)ccc1N` | inactive | inactive | inactive |
| `C=CCNCc1cc(CC=C)c(OCC)c(OC)c1` | inactive | inactive | inactive |
| `COC(=O)CCc1c(C)nc(N)nc1O` | inactive | inactive | inactive |
| `Cc1ccc(S(=O)(=O)NC(=O)NN2CC3CCCC3C2)cc1` (configuration not stated) | inactive | inactive | inactive |
| `N#CCCS(=O)(=O)c1ccc(N)cc1` | inactive | inactive | inactive |
| `CN1CCC2(CC1)CN(C(=O)c1ccnc(N)c1)CCCN2C` | inactive | inactive | inactive |
| `COc1ccc(-c2nn3c(NCCC(C)C)cc(C)nc3c2C)cc1OC` | - | inactive | inactive |
| `CC(=O)c1ccc(OCC(O)CN2CCc3ccccc3C2)cc1` (configuration not stated) | inactive | inactive | inactive |
| `O=C(Nc1ccccc1CCO)c1ccc(CN2CCCCCC2)cc1` | inactive | inactive | inactive |
| `Cc1cccc(N2CCN(CCC(=O)NCc3cc4n(n3)CCNC4)CC2)c1` | inactive | inactive | inactive |
| `CCc1nc2c(c(NCc3cnn(-c4ccccc4)n3)n1)CCNCC2` | inactive | inactive | inactive |
| `CCOc1cc(CC(=O)N[C@@H](CC(C)C)c2ccccc2N2CCCCC2)ccc1C(=O)O` | inactive | inactive | inactive |
| `Cc1cc(F)cc(-c2nccn2CC(C)(O)CCCO)c1` (configuration not stated) | inactive | inactive | inactive |
| `CC1(C)CC(=O)CC(C)(C)N1O` | inactive | inactive | inactive |
| `Cn1c(C(=O)O)c(CNCCCc2ccccc2)c2ccccc21` | - | inactive | inactive |
| `COc1ccc(Cc2ncc3c(n2)CN(C(=O)[C@@H](N)CO)C3)cc1` | inactive | inactive | inactive |
| `Nc1ccc2oc(-c3cc(Br)ccc3Cl)nc2c1` | inactive | active | inactive |
| `O=C(CC1COCCN1)NCc1nnc2n1CCCCC2` (configuration not stated) | inactive | inactive | inactive |
| `CN(C(=O)CN1CC2(CCNCC2)OC1=O)C1Cc2ccccc2C1` | inactive | inactive | inactive |
| `COc1ccccc1Nc1ncc(C(=O)N2CCN(c3ccccc3F)CC2)c2ccccc12` | inactive | inactive | inactive |
| `Cn1c(=O)n(-c2ccc(C(C)(C)C#N)cc2)c2c3cc(-c4cnc5ccccc5c4)ccc3ncc21` | inactive | inactive | inactive |
| `CCOC(=O)C1=C(C)OC(N)=C(C#N)C1c1ccsc1` (configuration not stated) | inactive | inactive | inactive |
| `O=C(NCC1(CO)CCC1)Nc1ccc(Cl)cc1` | inactive | inactive | inactive |
| `CN(CCCNc1ncnc2onc(-c3ccc(Cl)cc3)c12)Cc1ccccc1` | inactive | inactive | inactive |
| `CCOC(=O)c1c(N)sc(C(=O)Nc2ccc(C)cc2C)c1C` | inactive | inactive | inactive |
| `Cc1ccc(-n2nc(CO)c(C(=O)NCc3ccncc3)n2)cc1` | - | inactive | inactive |
| `N#Cc1ccc(Cn2c(-c3nonc3N)nc3ccccc32)cc1` | inactive | inactive | inactive |
| `Nc1cccc(S(=O)(=O)NC2CCCCC2)c1` | - | inactive | inactive |
| `O=C1N(CCC2CCCCC2)CCCC1(O)CNCCc1ccccn1` (configuration not stated) | inactive | inactive | inactive |
| `COCC(O)Cn1ccnc1[N+](=O)[O-]` (configuration not stated) | inactive | inactive | inactive |
| `c1ccc2c(c1)cnc1ccccc12` | inactive | inactive | inactive |
| `CC(Sc1nc2c(N)ncnc2[nH]1)C(=O)O` (configuration not stated) | inactive | inactive | inactive |
| `CN(C)C[C@@H]1CN(c2cccc(C#N)n2)C[C@@H]1CO` | inactive | inactive | inactive |

Repeated from the top, 5 entries:

compound	SAM-II	PreQ1	TPP
Cc1nn(-c2ccccc2Cl)c(N)c1-c1ccccc1	inactive	inactive	inactive
O=C(N[C@@H]1CNC[C@H]1O)c1ccc(CSc2ccccn2)cc1	inactive	inactive	inactive
COc1ccc2c(c1)CN(C)CC2c1ccc(Cl)c(Cl)c1 (configuration not stated)	inactive	inactive	inactive
O=C1CCCCCN1CCC(=O)N1CCC2(CC1)c1ccccc1CC2O (configuration not stated)	inactive	inactive	inactive
CCOC(=O)C1=C[C@@H](OC(CC)CC)[C@H](NC(C)=O)[C@@H](N)C1	inactive	inactive	inactive

Data from the ROBIN nucleic acid binder screens, doi:10.1002/anie.202211358.